# Assay results taken from PMC12266115.
# No constants are given. Whether binding was seen depends on the method and setting. Some binding calls cover weakened binding; strength is not graded here. Sequences can lack the tags named with a protein.
# T1: EDS1 full length, Gal4 BD fusion (A. thaliana) (UniProt Q9SU72)
# T1 sequence: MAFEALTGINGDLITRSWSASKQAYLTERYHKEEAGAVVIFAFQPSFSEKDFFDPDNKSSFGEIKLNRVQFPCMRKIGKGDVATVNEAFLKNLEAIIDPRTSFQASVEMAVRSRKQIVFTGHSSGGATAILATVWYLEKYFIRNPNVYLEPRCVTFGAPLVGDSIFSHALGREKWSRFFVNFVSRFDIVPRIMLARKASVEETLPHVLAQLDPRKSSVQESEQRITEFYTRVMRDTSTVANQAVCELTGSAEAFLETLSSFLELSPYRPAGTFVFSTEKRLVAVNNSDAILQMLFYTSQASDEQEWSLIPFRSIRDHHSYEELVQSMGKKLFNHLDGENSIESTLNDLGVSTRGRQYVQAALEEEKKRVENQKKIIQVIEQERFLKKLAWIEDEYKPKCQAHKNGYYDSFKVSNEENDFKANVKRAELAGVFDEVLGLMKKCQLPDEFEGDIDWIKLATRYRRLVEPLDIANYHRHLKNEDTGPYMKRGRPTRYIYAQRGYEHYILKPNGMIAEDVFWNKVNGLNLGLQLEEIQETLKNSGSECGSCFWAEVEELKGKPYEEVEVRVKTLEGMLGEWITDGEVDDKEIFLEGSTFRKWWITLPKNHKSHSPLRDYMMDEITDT
# Target: T1, EDS1 full length, Gal4 BD fusion (A. thaliana)
# Experiment: two-hybrid; S. cerevisiae AH109, pDEST-GBKT7 (BD) and pDEST-GADT7 (AD) fusions; growth on SD-LWH with 5 mM 3-amino-1,2,4-triazole and on SD-LWHA, 28°C, 5 days
row,binding,Binder
1,binds,"SAG101 full length, Gal4 AD fusion (protein, UniProt Q4F883 1-537) MESSSSLKGSALGKLVVTSGLLHSSWSKILEIHNPPYSNHDPGLQVSKKKKDSGLEFQIHREEKFTLVVFSAPPICRSSSSDSTLLHVKDKENPFPFLCSENNPSFSLHTPAFNLFTSASTSLTYLKSELLQTLKSEKPVIITGAALGGSVASLYTLWLLETIEPTLKRPLCITFGSPLIGDASLQQILENSVRNSCFLHVVSAQTRIKMDFFKPFGTFLICFDSGCVCIEDHVAVTELLNGVHDSGLVDYSQVLNRLDQSMLSLADSRLIPEDVIKGIEKRAEMKNLRFDMMFKKLNDMKISMAYIEWYKKKCKEVKIGYYDRFKTQLAFPSKEFDINIKNHHKSELNRFWKSVVEEVERRPQSDASILKRRFLFSGNNYRRMIEPLDIAEYYLEGRKEYRTTGRSHHYVMLEKWFGMESILIEKERCKKRDLSDLLTFDSCFWAEVEDSLIVINQLNTTVGMRDDVREVLTRKLVEFEGYVWEIITKREVSPEIFLEESSFMKWWKEYKKIKGFNSSYLTEFMNTRKYESYGKSQ"
2,binds,"PAD4 full length, Gal4 AD fusion (protein, UniProt Q9S745 1-541) MDDCRFETSELQASVMISTPLFTDSWSSCNTANCNGSIKIHDIAGITYVAIPAVSMIQLGNLVGLPVTGDVLFPGLSSDEPLPMVDAAILKLFLQLKIKEGLELELLGKKLVVITGHSTGGALAAFTALWLLSQSSPPSFRVFCITFGSPLLGNQSLSTSISRSRLAHNFCHVVSIHDLVPRSSNEQFWPFGTYLFCSDKGGVCLDNAGSVRLMFNILNTTATQNTEEHQRYGHYVFTLSHMFLKSRSFLGGSIPDNSYQAGVALAVEALGFSNDDTSGVLVKECIETATRIVRAPILRSAELANELASVLPARLEIQWYKDRCDASEEQLGYYDFFKRYSLKRDFKVNMSRIRLAKFWDTVIKMVETNELPFDFHLGKKWIYASQFYQLLAEPLDIANFYKNRDIKTGGHYLEGNRPKRYEVIDKWQKGVKVPEECVRSRYASTTQDTCFWAKLEQAKEWLDEARKESSDPQRRSLLREKIVPFESYANTLVTKKEVSLDVKAKNSSYSVWEANLKEFKCKMGYENEIEMVVDESDAMET"
